Values of other authors, collected in patent publication US20100331577A1, “Method for radio-labeling serotonin transporter ligand, 123I-IADM” (ATOMIC ENERGY COUNCIL-INSTITUTE OF NUCLEAR ENERGY RESEARCH, priority 2008, published 2010).
At least one structure is not confirmed: it was looked up by name or label, or the drawing left a doubt.

Conditions: cited from earlier work

| Structure (SMILES) | lipophilicity |
| --- | --- |
| CN(C)Cc1ccccc1Sc1ccc([125I])cc1CO [^125I-IDAM] | lipophilic |
| CN(C)Cc1ccccc1Sc1ccc([125I])cc1N [^125I-ADAM] | lipophilic |
